Data reported in paper PMC6954211.
Where a chain is given by its changes, count along the chain named. No constants are given. Whether binding was seen depends on the method and setting. Some results given as binding are weak or reduced against the parent protein; the word gives no strength. Where a sequence is shown, tags or fusion partners need not be part of it.

Protein sequences, listed by entry. Tags and fused reporters are not part of them. Residues count along the entry.
UniProt Q9M364, residues 875-993: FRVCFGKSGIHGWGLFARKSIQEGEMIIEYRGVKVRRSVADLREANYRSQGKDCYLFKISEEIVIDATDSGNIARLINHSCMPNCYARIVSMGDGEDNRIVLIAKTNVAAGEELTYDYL

Assays:
[1] = target: T1, GST-PHD(C162S) (Arabidopsis) (UniProt Q680Q4); test: pull-down; 1 µg GST-PHD or GST-PHD(C162S) and 1 µg MBP-ATXSET incubated overnight in 300 µL peptide-binding buffer (50 mM Tris-HCl pH 7.5, 150 mM NaCl, 0.1% NP-40); pulled down with glutathione Sepharose beads; blot with anti-MBP; both purified
T1 sequence: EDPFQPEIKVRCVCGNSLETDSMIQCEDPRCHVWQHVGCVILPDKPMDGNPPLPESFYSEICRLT

[2] = target: T2, GST-PHD (PHD finger of Arabidopsis SIZ1 fused to GST) (Arabidopsis) (UniProt Q680Q4); test: as above
T2 sequence: T1 sequence with S59C

“MBP-ATX3SET (SET domain of ATX3 fused with maltose-binding protein) (from UniProt Q9M364 875-993) (domain or fragment)” was tested, and the binding [1] was “binds” and the binding [2] was “binds”.
